## Library screen at single concentrations

Measurements from “University of Dundee, Small-Polar-MMV Screening Library” (2021), ChEMBL document CHEMBL3988442.

Values are the deposited “Percent Effect”, in %.
The controls that fix the scale are not given in the record; negative values are as filed.
The compounds are a random part of those screened.

Mtb glucose medium: 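Phenotypic screen: M. tuberculosis growth, glucose 7H9 medium, 3 days; the read-out is not stated. Compounds at 500 µM. Higher reads as more growth inhibition (inferred: compounds with an IC50 in retests scored well above the rest). Size under these conditions: about 18,000 compounds, about 1,400 of them at 50% or above in at least one test.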
Mtb cholesterol medium: 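Whole-cell growth test on Mycobacterium tuberculosis, read after 4 days in a medium based on cholesterol and the lipid DPPC; the read-out is not stated. Compounds at 500 µM. The record gives no direction; compounds that gave an IC50 in retests scored well above the rest, so higher reads as more growth inhibition. Size under these conditions: about 18,000 compounds, about 900 of them at 50% or above in at least one test.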

SMILES	Mtb glucose medium	Mtb cholesterol medium
NC(=O)c1ccc(CN2CCCC2=O)cc1	8.847%	12.25%
CC(=O)N1CCN(CCC(=O)Nc2cc(C)on2)CC1	-9.151%	-9.491%
COc1cc(OC)cc(C(=O)NCc2ccnn2C)c1	11.55%	-23.24%
Nc1ccnc(CC2CC(=O)N(c3ccccc3)C2)n1 (centres undefined)	28.66%	17.94%
Cc1ccccc1NCCC(=O)NC1CCS(=O)(=O)C1 (centres undefined)	17.73%	2.096%
NCc1cccc(CN2CCCC2=O)c1	18.57%	7.689%
COc1ccc(Cn2ccccc2=O)cc1C#N	9.707%	-8.453%
COC(=O)Cc1cc(O)n[nH]1	11.38%	-15.77%
Cc1ccc(NC(=O)CN2CCNCC2)c(C)c1	19.22%	14.51%
CC(C)C(=O)NCCCNC(=O)N1CCC=C(Br)C1	18.47%	-0.2317%
CNc1nc(C)cc(C(=O)NC(C)c2ncon2)n1 (centres undefined)	12.84%	-15.91%
CCN1CCCC1Cn1c(=O)[nH]c2ccccc2c1=O (centres undefined)	6.631%	1.365%
O=C(NC1=NCCS1)C1CCCN1 (centres undefined)	6.916%	6.671%
CC(NS(C)(=O)=O)c1nc(C2CC2)n[nH]1 (centres undefined)	9.403%	4.038%
C[C@H](N)c1ccc(Cl)s1	35.47%	23.87%
Nc1nnc(SCc2ccc(Cl)s2)[nH]1	52.16%	61.13%
NCCc1cc(C(F)(F)F)ccn1	-12.82%	-22.59%
CC(=O)N1CC(NC(=O)NCC2CCCC2)C1	-9.223%	-19.45%
NC1CCN(CC2CCCC2)C1 (centres undefined)	5.775%	-0.2231%
COc1ccc(C)cc1CC(=O)N1CCN(C)CC1	4.566%	-1.586%
O=C(NCCN1CCS(=O)(=O)CC1)C1=CCCCCC1	-2.785%	-12.94%
CCN1CCN(C(=O)c2c(C)oc(C)c2C)CC1	3.978%	6.049%
COCCN1CCN(c2ccc(OC)cc2)CC1	10.29%	5.266%
Cc1nn(C)c(C)c1CC(=O)N1CCSCC1	13.3%	2.981%
COCCn1cnnc1C(C)NC(=O)c1ccc(C)s1 (centres undefined)	18.03%	6.811%
O=c1n(Cc2ccccc2)nnn1-c1cccs1	78.62%	76.26%
COc1ccc(C(=O)N2CC[C@@H](N)[C@H](O)C2)cc1Cl	11.15%	-3.139%
O=C(CSCc1cccs1)NC1CC1	19.94%	-10.76%
CC1NCCn2c(C(=O)NC3CC3)ccc21 (centres undefined)	25.88%	4.997%
OCC1(O)CCN(Cc2cc3ccccc3s2)C1 (centres undefined)	15.94%	22.46%
CC(C)(C#N)C(=O)Nc1nc2ccccc2[nH]1	-1.166%	-27.1%
COCCNC(=O)CN1CCC(C)CC1	0.5368%	3.905%
CSCC(CCO)NC(=O)Nc1cccc(F)c1 (centres undefined)	31.86%	14.87%
COC(=O)c1coc(CN2CCC(O)(CO)CC2)n1	-0.1448%	-12.87%
CS(=O)(=O)NCC1CCCN(c2ccncc2Cl)C1 (centres undefined)	34.72%	24.25%
C1COCC(C2CC2)N1 (centres undefined)	-9.129%	-16.24%
O=C(CCc1cccnc1)NCCN1CCNC1=O	-19.11%	-17.71%
CNC(=O)CN(C)Cc1nnsc1Cl	2.673%	-1.972%
NCCc1nc(N)no1	-8.215%	-7.559%
COCCN(CCS(C)(=O)=O)c1nc2ccccc2[nH]1	3.738%	0.2968%
N#CC1CCCN(C(=O)c2cnc3ccccc3c2)C1 (centres undefined)	21.04%	2.033%
CCn1cnnc1CNC(=O)c1cccc(N(C)C)c1	7.567%	1.889%
C[C@@H](N)C(=O)N1CCCC1Cc1cccc(F)c1 (some centres undefined)	46.75%	17.12%
O=C(Cn1ccc(C(F)(F)F)n1)NCc1ccco1	53.4%	38.94%
CNC(=O)c1cccc(NS(=O)(=O)c2ccccc2)c1	33.3%	25.71%
CCc1ccccc1OCCN1CCOCS1(=O)=O	40%	18.95%
COCCCNC(=O)NCC1CCN(CC(F)(F)F)C1 (centres undefined)	15.42%	6.679%
CCC(CO)CC(F)F (centres undefined)	-0.4155%	10.15%
CCC(CC)Nc1ccc2nnnn2n1	6.245%	1.031%
COCc1nnc(C(=O)N(C)Cc2ncc[nH]2)o1	-4.853%	-8.035%
CCOC(=O)N1CCN(C(=O)C2CCNCC2)CC1	12.24%	8.522%
CCC1CN(C(=O)Cn2cc(C)c(=O)[nH]c2=O)CCN1 (centres undefined)	13.85%	9.8%
CC(C)c1cc(C(F)(F)CN)[nH]n1	25.09%	19.44%
CC(C)N1CCC(NC(=O)c2ccc(C#N)cc2)CC1	-1.481%	-17.98%
CC(=O)c1ccccc1-n1cccn1	6.92%	0.6019%
Cc1n[nH]cc1CNCCCN1CCCC1=O	9.737%	1.092%
O=C(NCCNc1ncccn1)c1cc(Cl)ccn1	36.75%	5.52%
O=C(Nc1ccc(O)nn1)c1ccc(F)cn1	-8.233%	-13.89%
CCS(=O)(=O)NCCNC(C)(C)c1nccs1	5.782%	-10.48%
O=C(Cc1cc(F)ccc1F)NCC1CCNC1 (centres undefined)	3.44%	6.585%
OCc1ccncc1NCc1coc2ccccc12	28.41%	5.832%
CCc1cc(C(=O)NC2(C(N)=O)CCCC2)cc(=O)[nH]1	-1.129%	-10.34%
Cc1noc(C)c1CC(=O)N(C)C(C)c1ccncc1 (centres undefined)	-3.253%	-7.97%
CC(C)C(NC(=O)c1ccco1)C(=O)N1CCOCC1 (centres undefined)	-23.01%	-22.1%
COCCCNS(=O)(=O)c1ccc2c(c1)NC(=O)CS2	33.72%	4.553%
CC(=O)N1CCCN(c2ccncc2N)CC1	2.683%	4.768%
NC(=O)CN1CCC(OCc2ccccc2)CC1	35.29%	6.381%
CN(C)c1ccc(C(=O)Nc2ccn(C)n2)cc1F	38.31%	31.59%
Cc1cc(C(F)F)nn1CC(=O)N1CCSCC1	11.43%	15.91%